Data from article PMC4140642.
Construct, isoform or probe ends are uncertain for at least one entry. For some of these results: Negatives hold for the conditions tested.

Amino acid sequences for entries named in this document (tags omitted). Residues count along the entry.
UniProt P91943, 273-341: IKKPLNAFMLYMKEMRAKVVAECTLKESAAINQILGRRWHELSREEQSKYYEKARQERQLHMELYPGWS

How the values were obtained:
[1] = molecular target: GST-HMG-C-clamp (TCF/Pangolin) (UniProt P91943); experiment: reverse EMSA (silver-stained native gel); conditions: 20x DNA; EMSA: 4 nM biotinylated probe, 7-20 uM protein, salt and pH not given; recombinant protein; protein details: GST
[2] = molecular target: GST-HMG (TCF/Pangolin HMG domain) (UniProt P91943); experiment: DNase I footprinting; conditions: 20 uM protein; footprinting: 20 uM protein, 12 nM probe; recombinant protein; protein details: GST; label: FAM or HEX; probe letters rebuilt from the primers and the genome

Row | Sequence | binding result [1] | binding result [2]
1 | AACCGGATGAAAAGGGAATTCGGGGCCACA (double strand) [WH oligo (Tig1 WGAWAW + r-Helper)] | binds | –
2 | AAGGAAGATCAAAGGGGGTAGCCGCCAGTA (double strand) [TH oligo (classic HMG + Helper)] | binds | –
3 | AAGGCCTCGACCCTTGGGTATAATAACGTA (double strand) [SS oligo (HMG and Helper sites mutated from TH)] | no binding | –
4 | AGCGATACGTTCGTTAGTTCGGAATAGAAAGAACTTGGGAAAATATTTAAAAATAAATAGCGACAGCCTGCAGGGGCCCAAGAAATGTGTTCCAGAAATAAGCAATACTATATTTTGGGAAAATGCATGTGTGACCCATTTGGGGGAGACGTCTTCTGTGGGGCCCTGAAATCGAAAGTTACATGTCGTCAAGTCCATGGGACTTATCAACCTAAACCGGATGAAAAGGGAATTCGGGGCCACATACATTAGTCTAATTGTTGTCAAAAAAAAAAATATACAAAAAATACAAGTGGGCAGTGAGCTTC (double strand) [Tig intron footprint probe] | – | binds
